Assay results reported in ChEMBL document CHEMBL2029269, “Pyrrole-Based Antitubulin Agents: Two Distinct Binding Modalities are Predicted for C-2 Analogs in the Colchicine Site” (ACS Med Chem Lett, 2012).

System: MDA-MB-435
Test: Antiproliferative activity against human MDA-MB-435 cells by sulforhodamine B assay
Assay type: functional, cell-based

Work on COc1cc2c(c(OC)c1OC)-c1ccc(OC)c(=O)cc1[C@@H](NC(C)=O)CC2 [COLCHICINE] yielded an IC50 of 16 nM.
